Measured values reported in US10775388B2, “Methods of using antibodies to determine periostin levels in a sample” (MEDIMMUNE, LLC, priority 2014, dated 2020).

tested on: periostin isoforms 2, 3, 4, 7, and 8; experiment: […] Periostin assay (4B4.B11 capture, 7B5.C4 detection) on media from periostin isoform transfections; format: binding, human; details: harvested media diluted 1:60 or 1:100

| Molecule | AVG ng/mL (corrected for dilution) [ng/mL] |
| --- | --- |
| Isoform 8: human periostin isoform 8 (SEQ ID NO:17), expressed in HEK-293-6E cells (protein, listed as Homo sapiens) ARRTMIPFLPMFSLLLLLIVNPINANNHYDKILAHSRIRGRDQGPNVCALQQILGTKKKYFSTCKNWYKKSICGQKTTVLYECCPGYMRMEGMKGCPAVLPIDHVYGTLGIVGATTTQRYSDASKLREEIEGKGSFTYFAPSNEAWDNLDSDIRRGLESNVNVELLNALHSHMINKRMLTKDLKNGMIIPSMYNNLGLFINHYPNGVVTVNCARIIHGNQIATNGVVHVIDRVLTQIGTSIQDFIEAEDDLSSFRAAAITSDILEALGRDGHFTLFAPTNEAFEKLPRGVLERIMGDKVASEALMKYHILNTLQCSESIMGGAVFETLEGNTIEIGCDGDSITVNGIKMVNKKDIVTNNGVIHLIDQVLIPDSAKQVIELAGKQQTTFTDLVAQLGLASALRPDGEYTLLAPVNNAFSDDTLSMDQRLLKLILQNHILKVKVGLNELYNGQILETIGGKQLRVFVYRTAVCIENSCMEKGSKQGRNGAIHIFREIIKPAEKSLHEKLKQDKRFSTFLSLLEAADLKELLTQPGDWTLFVPTNDAFKGMTSEEKEILIRDKNALQNIILYHLTPGVFIGKGFEPGVTNILKTTQGSKIFLKEVNDTLLVNELKSKESDIMTTNGVIHVVDKLLYPADTPVGNDQLLEILNKLIKYIQIKFVRGSTFKEIPVTVYGPEIKYTRISTGGGETEETLKKLLQEPVRKLQANKKVQGSRRRLREGRSQGSGSGHHHHHHHH | 3651.05 |
| Isoform 2: human periostin isoform 2 (SEQ ID NO:2), expressed in HEK-293-6E cells (protein, listed as Homo sapiens) MIPFLPMFSLLLLLIVNPINANNHYDKILAHSRIRGRDQGPNVCALQQILGTKKKYFSTCKNWYKKSICGQKTTVLYECCPGYMRMEGMKGCPAVLPIDHVYGTLGIVGATTTQRYSDASKLREEIEGKGSFTYFAPSNEAWDNLDSDIRRGLESNVNVELLNALHSHMINKRMLTKDLKNGMIIPSMYNNLGLFINHYPNGVVTVNCARIIHGNQIATNGVVHVIDRVLTQIGTSIQDFIEAEDDLSSFRAAAITSDILEALGRDGHFTLFAPTNEAFEKLPRGVLERIMGDKVASEALMKYHILNTLQCSESIMGGAVFETLEGNTIEIGCDGDSITVNGIKMVNKKDIVTNNGVIHLIDQVLIPDSAKQVIELAGKQQTTFTDLVAQLGLASALRPDGEYTLLAPVNNAFSDDTLSMDQRLLKLILQNHILKVKVGLNELYNGQILETIGGKQLRVFVYRTAVCIENSCMEKGSKQGRNGAIHIFREIIKPAEKSLHEKLKQDKRFSTFLSLLEAADLKELLTQPGDWTLFVPTNDAFKGMTSEEKEILIRDKNALQNIILYHLTPGVFIGKGFEPGVTNILKTTQGSKIFLKEVNDTLLVNELKSKESDIMTTNGVIHVVDKLLYPADTPVGNDQLLEILNKLIKYIQIKFVRGSTFKEIPVTVYKPIIKKYTKIIDGVPVEITEKETREERIITGPEIKYTRISTGGGETEETLKKLLQEEVTKVTKFIEGGDGHLFEDEEIKRLLQGDTPVRKLQANKKVQGSRRRLREGRSQ | 6655.5 |
| Isoform 7: human periostin isoform 7 (SEQ ID NO:16), expressed in HEK-293-6E cells (protein, listed as Homo sapiens) ARRTMIPFLPMFSLLLLLIVNPINANNHYDKILAHSRIRGRDQGPNVCALQQILGTKKKYFSTCKNWYKKSICGQKTTVLYECCPGYMETRMETEGMETKGCPAVLPIDHVYGTLGIVGATTTQRYSDASKLREEIEGKGSFTYFAPSNEAWDNLDSDIRRGLESNVNVELLNALHSHMINKRMETLTKDLKNGMETIIPSMETYNNLGLFINHYPNGVVTVNCARIIHGNQIATNGVVHVIDRVLTQIGTSIQDFIEAEDDLSSFRAAAITSDILEALGRDGHFTLFAPTNEAFEKLPRGVLERIMETGDKVASEALMETKYHILNTLQCSESIMETGGAVFETLEGNTIEIGCDGDSITVNGIKMETVNKKDIVTNNGVIHLIDQVLIPDSAKQVIELAGKQQTTFTDLVAQLGLASALRPDGEYTLLAPVNNAFSDDTLSMDQRLLKLILQNHILKVKVGLNELYNGQILETIGGKQLRVFVYRTAVCIENSCMETEKGSKQGRNGAIHIFREIIKPAEKSLHEKLKQDKRFSTFLSLLEAADLKELLTQPGDWTLFVPTNDAFKGMTSEEKEILIRDKNALQNIILYHLTPGVFIGKGFEPGVTNILKTTQGSKIFLKEVNDTLLVNELKSKESDIMTTNGVIHVVDKLLYPADTPVGNDQLLEILNKLIKYIQIKFVRGSTFKEIPVTVYGPEIKYTRISTGGGETEETLKKLLQEEVTKVTKFIEGGDGHLFEDEEIKRLLQGDTPVRKLQANKKVQGSRRRLREGRSQGSGSGHHHHHHHH | 5337.53 |
| Isoform 4: human periostin isoform 4 (SEQ ID NO:4), expressed in HEK-293-6E cells (protein, listed as Homo sapiens) MIPFLPMFSLLLLLIVNPINANNHYDKILAHSRIRGRDQGPNVCALQQILGTKKKYFSTCKNWYKKSICGQKTTVLYECCPGYMRMEGMKGCPAVLPIDHVYGTLGIVGATTTQRYSDASKLREEIEGKGSFTYFAPSNEAWDNLDSDIRRGLESNVNVELLNALHSHMINKRMLTKDLKNGMIIPSMYNNLGLFINHYPNGVVTVNCARIIHGNQIATNGVVHVIDRVLTQIGTSIQDFIEAEDDLSSFRAAAITSDILEALGRDGHFTLFAPTNEAFEKLPRGVLERIMGDKVASEALMKYHILNTLQCSESIMGGAVFETLEGNTIEIGCDGDSITVNGIKMVNKKDIVTNNGVIHLIDQVLIPDSAKQVIELAGKQQTTFTDLVAQLGLASALRPDGEYTLLAPVNNAFSDDTLSMDQRLLKLILQNHILKVKVGLNELYNGQILETIGGKQLRVFVYRTAVCIENSCMEKGSKQGRNGAIHIFREIIKPAEKSLHEKLKQDKRFSTFLSLLEAADLKELLTQPGDWTLFVPTNDAFKGMTSEEKEILIRDKNALQNIILYHLTPGVFIGKGFEPGVTNILKTTQGSKIFLKEVNDTLLVNELKSKESDIMTTNGVIHVVDKLLYPADTPVGNDQLLEILNKLIKYIQIKFVRGSTFKEIPVTVYKPIIKKYTKIIDGVPVEITEKETREERIITGPEIKYTRISTGGGETEETLKKLLQEDTPVRKLQANKKVQGSRRRLREGRSQ | 9720.50 |
| Isoform 3: human periostin isoform 3 (SEQ ID NO:3), expressed in HEK-293-6E cells (protein, listed as Homo sapiens) MIPFLPMFSLLLLLIVNPINANNHYDKILAHSRIRGRDQGPNVCALQQILGTKKKYFSTCKNWYKKSICGQKTTVLYECCPGYMRMEGMKGCPAVLPIDHVYGTLGIVGATTTQRYSDASKLREEIEGKGSFTYFAPSNEAWDNLDSDIRRGLESNVNVELLNALHSHMINKRMLTKDLKNGMIIPSMYNNLGLFINHYPNGVVTVNCARIIHGNQIATNGVVHVIDRVLTQIGTSIQDFIEAEDDLSSFRAAAITSDILEALGRDGHFTLFAPTNEAFEKLPRGVLERIMGDKVASEALMKYHILNTLQCSESIMGGAVFETLEGNTIEIGCDGDSITVNGIKMVNKKDIVTNNGVIHLIDQVLIPDSAKQVIELAGKQQTTFTDLVAQLGLASALRPDGEYTLLAPVNNAFSDDTLSMDQRLLKLILQNHILKVKVGLNELYNGQILETIGGKQLRVFVYRTAVCIENSCMEKGSKQGRNGAIHIFREIIKPAEKSLHEKLKQDKRFSTFLSLLEAADLKELLTQPGDWTLFVPTNDAFKGMTSEEKEILIRDKNALQNIILYHLTPGVFIGKGFEPGVTNILKTTQGSKIFLKEVNDTLLVNELKSKESDIMTTNGVIHVVDKLLYPADTPVGNDQLLEILNKLIKYIQIKFVRGSTFKEIPVTVYRPTLTKVKIEGEPEFRLIKEGETITEVIHGEPIIKKYTKIIDGVPVEITEKETREERIITGPEIKYTRISTGGGETEETLKKLLQEDTPVRKLQANKKVQGSRRRLREGRSQ | 7719.50 |
